No constants are given. Whether binding was seen depends on the method and setting. In cells and extracts the contact can be indirect. Some binding calls cover weakened binding; strength is not graded here. Tags and fused reporters may be left off the sequences shown.
Key:
[1] = biological target: T1, T7-RILP-L1 (pEF-T7-RILP-L1) (mouse, UniProt Q9JJC6 1-406); experiment: co-immunoprecipitation of GFP- and T7-tagged forms from RBL cell lysates
T1 construct: The pEF-T7 plasmid was 'prepared as previously described'; also called T7-tagged RILP-L1; RILP-like 1
T1 sequence (looked up): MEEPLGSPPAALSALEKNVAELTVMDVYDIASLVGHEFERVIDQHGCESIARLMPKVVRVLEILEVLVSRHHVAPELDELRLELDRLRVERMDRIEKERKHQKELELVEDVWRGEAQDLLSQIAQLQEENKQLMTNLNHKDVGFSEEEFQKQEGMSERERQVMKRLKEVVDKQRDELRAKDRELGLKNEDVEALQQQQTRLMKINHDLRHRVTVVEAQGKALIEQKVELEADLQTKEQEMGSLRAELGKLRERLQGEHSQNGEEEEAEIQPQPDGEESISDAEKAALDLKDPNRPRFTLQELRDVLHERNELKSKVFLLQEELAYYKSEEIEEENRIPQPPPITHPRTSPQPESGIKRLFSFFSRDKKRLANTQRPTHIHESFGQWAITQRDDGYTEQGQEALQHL

[2] = biological target: T1, T7-RILP-L1 (pEF-T7-RILP-L1); experiment: co-immunoprecipitation from co-transfected RBL cell lysates, IP anti-GFP, blot anti-T7
Method: FIGS. 1A, 1B show the results of immunoprecipitations in which cell lysates derived from the rat mast cell line RBL-2H3, herein referred to as RBL cells, that were co-transfected with 17.5 μg of pEGFP plasmid encoding either RILP, RILP-L1 or RILP-L2 and 17.5 μg of pEF plasmid encoding either T7-RILP, T7-RILP-L1 or T7-RILP-L2, as indicated, were subjected to immunoprecipitation with rabbit polyclonal antibodies directed against GFP. FIGS. 1C, 1D show the results of immunoprecipitations in which the RBL cell lysates described above were subjected to immunoprecipitation with mouse monoclonal antibodies directed against the T7 epitope. Immune complexes were then analyzed by SDS-PAGE and immunoblotting with mouse monoclonal anti T7 antibodies, followed by reprobing with polyclonal anti GFP antibodies (FIGS. 1A, 1B), or with polyclonal anti GFP antibodies followed by reprobing with monoclonal anti T7 antibodies (FIGS. 1C, 1D), as indicated. Input=10% of total protein.
RBL cell lysates (500 μg) prepared in buffer A (50 mM Hepes pH 7.4, 250 mM NaCl, 1 mM MgCl₂, 1% Triton X-100, protease inhibitor mixture, 1 mM PMSF, 2 mM Na₃VO₄) were incubated overnight at 4° C. with either rabbit polyclonal anti-GFP antibodies (2 μg) or mouse monoclonal anti-T7 antibodies (1 μg). […] Proteins were resolved by SDS-PAGE and analyzed by immunoblotting with the desired antibodies.

[3] = biological target: T2, T7-RILP-L2 (pEF-T7-RILP-L2) (mouse) (UniProt Q99LE1); experiment: co-immunoprecipitation of GFP- and T7-tagged forms from RBL cell lysates
T2 sequence (looked up): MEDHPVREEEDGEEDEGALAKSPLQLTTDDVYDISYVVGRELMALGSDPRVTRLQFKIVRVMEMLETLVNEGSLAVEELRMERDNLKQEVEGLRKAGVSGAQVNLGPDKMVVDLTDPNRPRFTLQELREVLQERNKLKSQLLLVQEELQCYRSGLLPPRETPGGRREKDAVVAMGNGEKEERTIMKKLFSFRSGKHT

[4] = biological target: T2, T7-RILP-L2 (pEF-T7-RILP-L2) (mouse); experiment: co-immunoprecipitation from co-transfected RBL cell lysates, IP anti-GFP, blot anti-T7

B1: GFP-RILP-L1 (mouse RILP-like 1 in pEGFP-C1) (protein, UniProt Q9JJC6 1-406, looked up, not shown: large carriers)
chain: T1 sequence (looked up)
For B1, the binding [1] was “binds” and the binding [2] was “binds”.

B2: GFP-RILP-L2 (mouse RILP-like 2 in pEGFP-C1) (protein, UniProt Q99LE1 1-197, looked up, not shown: large carriers)
chain: T2 sequence (looked up)
With B2 the binding [3] was “binds” and the binding [4] was “binds”.
